Values from PubChem BioAssay AID1671195 (Yale University, 2021).
In all, the deposit lists about 22,000 reagents; shown is an unselected part. In the full data, about 1,510 (6.9%) got an active call. 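Active includes knockdowns raising or lowering LDL uptake; positive z-scores mean more uptake, negative mean less.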 Entries without a mark were called inactive. Reagents against one gene are numbered here.

Test: 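Knockdowns that increase or decrease uptake of fluorescent LDL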 (primary screen)
Cells: human Huh7 hepatoma cells
Reagent: siRNA pool against human genes, 18 nM
Duration: about 2 to 2.5 days of knockdown, then 8 h LDL uptake
Conditions: DiI-labelled LDL at 30 µg/ml for 8 h, in lipoprotein-deficient serum medium
Measurement: 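Per-cell DiI-LDL intensity by automated imaging; well means scaled to the plate median and given as a robust z-score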
Reading the numbers: robust z-score: higher = more LDL uptake after knockdown
Call rule: 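a gene counts as active if at least two replicate z-scores exceed ±2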

gene knocked down	pool no.	robust z-score, replicate 1	robust z-score, replicate 2	robust z-score, replicate 3
RGR	1	-1.64	1.36	1.75
PPP1CA	1	0.161	0.0705	0.393
ARHGDIB	1	-0.156	-0.292	0.102
GJC1	1	-0.475	-0.0627	-0.758
UGT1A9	1	1.2	1.47	1.94
GINS2	1	0.161	-0.497	0.81
DEF8	1	0.952	0.874	0.716
RBIS	1	0.701	0.434	0.684
CHAC1	1	0.709	0.443	1.61
RIT1	1	-0.531	-1.53	-1.54
RNH1	1	-0.221	-0.213	0.145
VGLL1	1	0.377	-0.32	1.54
ANOS1	1	1.37	0.57	0.569
NELFCD	1	1.2	0.497	-1.93
LOC440685 (retired record)	1	-0.743	-0.256	-0.00574
ZNF143	1	-0.00628	-0.194	0.393
UBTD1	1	-0.652	-0.685	-0.255
LOC388308 (retired record)	1	0.752	0.522	0.0177
POU3F2	1	-1.08	-0.953	-0.731
TMEM38B	1	0.635	0.481	2.38
TNXB	1	1.65	-0.294	1.23
PRDM8	1	-0.825	-0.517	-0.957
CCL22	1	-1.11	-0.595	-0.473
ZC3H12B	1	0.72	0.266	0.238
GPS1	1	-2.2 (active)	-1.6	-2.09
SLC7A6	1	-0.101	-0.569	0.46
HSP90AB6P	1	-0.765	-1.19	-1.33
LDB2	1	1.16	-0.397	-0.289
RPS6KA5	1	-0.221	-0.342	-0.704
PPIAP35	1	0.374	-0.206	1.46
MAPK14	1	-0.12	0.501	0.382
PACC1	1	0.223	-0.221	-1.23
LOC392177 (retired record)	1	-0.367	-0.497	-0.748
RFX2	1	0.771	0.57	0.713
GPRIN1	1	-0.356	-2.04	-1.65
GPRASP3	1	-1.17	-1.18	-0.723
TIMM8B	1	-1.24	-0.584	-0.466
CDH19	1	-0.615	-0.245	-0.196
OTUD6A	1	-0.426	-0.0461	-0.378
TUBAL3	1	1.37	0.469	1.41
TSPO	1	0.396	0.271	0.545
LINC00927	1	-1.53	-1.52	-1.64
LOC100506459	1	-0.909	-0.803	-0.947
LOC100288884	1	-0.136	-0.00214	-0.535
STRADB	1	0.349	0.066	0.913
CHEK2	1	-0.862	0.225	-0.181
LOC388022 (retired record)	1	-0.508	-0.374	-0.241
TECTA	1	0.068	1.89	3.02
SMYD4	1	0.00333	-1.71	-0.805
EPC1	1	0.183	0.742	0.664
TSPAN14	1	-1.35	-0.574	-1.03
ANKRD29	1	0.0348	-0.541	0.0217
BUD31	1	-0.797	-0.971	-1.21
TMPRSS3	1	-1.07	-1.11	-1.32
LBP	1	0.816	-0.824	0.316
RPL37P6	1	0.469	0.137	0.324
LINC01164	1	1.38	0.78	0.526
ERRFI1	1	-1.19	-1.45	-1.07
EDEM3	1	-0.244	0.134	-0.0248
CCR1	1	1.48	1.33	1.22
RRM1	1	-1.6	-1.75	-1.86
PCYOX1	1	1.51	1.46	-1.5
LINC01949	1	0.118	0.211	-0.271
NEBL	1	0.0411	-0.265	-0.526
NEBL	2	-1.51	-1.54	-1.73
LOC401823 (retired record)	1	2.12 (active)	1.87	3.37
HMGA2	1	-1.9	-1.22	-1.9
FEV	1	-0.0611	1.16	-0.382
CYLD	1	1.36	-0.597	0.572
ALKBH2	1	1.7	1.09	1.37
B4GALNT3	1	-1.21	-0.65	-1.07
LAMTOR2	1	-1.39	0.102	-1.1
NDUFA9	1	1.14	0.244	0.859
LEKR1	1	0.935	0.881	0.386
C1orf54	1	-1.92	-1.03	-1.17
RESF1	1	-1.34	-2.25	0.0788
TEX15	1	-0.62	0.923	-0.854
PRSS55	1	-1.72	-1.5	-1.21
ANKIB1	1	2.03	0.36	0.33
FXYD5	1	-1.71	-1.39	-0.678
SPATA8	1	1.54	1.04	1.97
BCL2L2	1	-0.626	0.399	-0.622
GMEB2	1	-1.3	-2.22	-1.32
ANXA13	1	-0.909	-1.54	-1.18
PTGES2-DT	1	-0.999	-1.35	-1.19
BAIAP2	1	1.59	1.74	0.838
ASS1	1	3.86 (active)	1.29	1.34
